± gives the standard error. Many entries were measured with a wide error.
B1: glmS ribozyme (parent)
chain: AUAAAAGCGCCAGAACUACAGAAAUGUAGUUGACGAGGAGGAGGUUUAUCGAAUUUUCGGCGGAUGCCUCCAAA

Variants of: B1
Assay: self-cleavage kobs at 160 uM GlcN6P; higher = faster cleavage; RNA array
Conditions: with glucosamine-6-phosphate
Summary of the method: (§1)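 kobs was derived by fitting per-tile medians to one- or two-exponential decays after normalising signals to baseline and to non-cleaving reference variants. Those signals came from barcoded ribozyme variants transcribed in situ by E. coli RNA polymerase on sequenced MiSeq chips, followed through a hybridised Cy3 probe at 37 °C and imaged over ~14 h. Glucosamine-6-phosphate (40 μM to 10 mM) in HEPES/KCl/Mg(OAc)2 buffer was flowed in. Weighted Michaelis–Menten fits across concentrations then gave kcat and KM.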

Variant | self-cleavage kobs at 160 uM GlcN6P [s⁻¹]
G38U C50G A64G | 3.08e-05 ± 2.2e-05
A12G U45G U54G | 1.42e-05 ± 1.2e-05
A33G G37U U47G C68A | 2.67e-05 ± 1.8e-05
G13U U31C C50G G63U | 3.48e-05 ± 2.2e-05
A6U A64G | 1.83e-05 ± 1.4e-05
C16U U57A C70A | 2.66e-05 ± 2.3e-05
C16U A39G A42U U47A | 3.84e-05 ± 3.7e-05
C50U C71G | 2.05e-05 ± 1.5e-05

Variants of: B1
Assay: self-cleavage kobs at 640 uM GlcN6P; higher = faster cleavage; RNA array
Conditions: with glucosamine-6-phosphate
Summary of the method: as §1

Variant | self-cleavage kobs at 640 uM GlcN6P [s⁻¹]
C61A G62U C67G C68U | 4.06e-05 ± 3.3e-05
A48G U55A C70A | 3.62e-05 ± 2.8e-05
G29A C61G C68U | 4.47e-05 ± 2.4e-05
G29C G40A U56G | 2.78e-05 ± 1.7e-05
A52G U65C | 2.56e-05 ± 2.5e-05
G32A G37A U49C G51U G59C C68G | 2.77e-05 ± 2.7e-05
U31C U57G | 2.2e-05 ± 2.1e-05
C50G G51C | 2.49e-05 ± 2.1e-05
U30A A52U | 2.71e-05 ± 1.9e-05
A39U A52U | 1.24e-05 ± 9.6e-06

Variants of: B1
Assay: self-cleavage kobs at 2500 uM GlcN6P; higher = faster cleavage; RNA array
Conditions: with glucosamine-6-phosphate
Summary of the method: as §1

Variant | self-cleavage kobs at 2500 uM GlcN6P [s⁻¹]
A12U G13U U30A | 2.7e-05 ± 1.9e-05
C16U G32U U69A | 4.12e-05 ± 3.1e-05
U31C G59U C68A | 3.57e-05 ± 2.2e-05
A14U G62A C70G | 6.04e-05 ± 3.1e-05
G13U A33G C68G | 2.34e-05 ± 1.7e-05
G7U C58G C61G | 4e-05 ± 3.3e-05
A12U A42G C68U | 0.0233 ± 0.02
G7A U54C | 2.5e-05 ± 1.4e-05
G29U U31C C50G C61U | 5.3e-05 ± 3.1e-05
U31C A39C U47C U56C | 2.85e-05 ± 1.6e-05
C11U G29U A39C U54A | 2.5e-05 ± 1.4e-05
C11G C67G | 2.39e-05 ± 1.4e-05
A14G G40A A53U | 0.0136 ± 0.0076
U31A A33U U55G | 3.44e-05 ± 2.4e-05
C11G G29U C70U | 5.04e-05 ± 3.8e-05
G13U U54C U69C C70G | 0.000561 ± 0.00036
C11G G32U U47C G62U C67U C70U C71G | 3.65e-05 ± 2.2e-05
G29A G60U G66A | 0.00143 ± 0.0014
C16A G41A | 3.02e-05 ± 1.7e-05
C10U G13A A53U U54A U55A C68G | 6.5e-05 ± 3.6e-05
G7A U69G | 4.18e-05 ± 2.3e-05
G29U C61A C70A | 2.82e-05 ± 2.5e-05
C16U A52C | 2.06e-05 ± 1.9e-05
A12C C16U G29C A52U | 4.43e-05 ± 2.6e-05

A different layout for part of the listing above:
G7A U69G
  self-cleavage kobs at 2500 uM GlcN6P [s⁻¹]: 4.18e-05 ± 2.3e-05
G29U C61A C70A
  self-cleavage kobs at 2500 uM GlcN6P [s⁻¹]: 2.82e-05 ± 2.5e-05
C16U A52C
  self-cleavage kobs at 2500 uM GlcN6P [s⁻¹]: 2.06e-05 ± 1.9e-05
A12C C16U G29C A52U
  self-cleavage kobs at 2500 uM GlcN6P [s⁻¹]: 4.43e-05 ± 2.6e-05

Variants of: B1
Assay: self-cleavage kobs at 10000 uM GlcN6P; higher = faster cleavage; RNA array
Conditions: with glucosamine-6-phosphate
Summary of the method: as §1

Variant | self-cleavage kobs at 10000 uM GlcN6P [s⁻¹]
A52G U65C | 3.21e-05 ± 1.6e-05
G7A U54C | 1.48e-05 ± 1.3e-05
U31A A33U U55G | 2.46e-05 ± 1.4e-05
